PubChem BioAssay AID588590 (National Center for Advancing Translational Sciences (NCATS), 2011)
About 4,000 (1%) of roughly 390,000 compounds were called active. This list was built around the results that the source calls inconclusive (neither active nor inactive); the mix of calls is not that of the screen. Calls come from the whole dose curve; as a rule, active = well fitted inhibition curve with a large enough effect; inconclusive = small, poorly fitted or top-dose-only effect, or another doubt; inactive = no such curve, though single readings can be large or run the other way. Potencies of inconclusive entries are doubtful fits and often do not repeat.

Sequences of proteins named here, by UniProt entry; tags and fusion partners are left off. A change or cut given only in a name is not applied to a line headed by its entry.
UniProt Q9UNA4: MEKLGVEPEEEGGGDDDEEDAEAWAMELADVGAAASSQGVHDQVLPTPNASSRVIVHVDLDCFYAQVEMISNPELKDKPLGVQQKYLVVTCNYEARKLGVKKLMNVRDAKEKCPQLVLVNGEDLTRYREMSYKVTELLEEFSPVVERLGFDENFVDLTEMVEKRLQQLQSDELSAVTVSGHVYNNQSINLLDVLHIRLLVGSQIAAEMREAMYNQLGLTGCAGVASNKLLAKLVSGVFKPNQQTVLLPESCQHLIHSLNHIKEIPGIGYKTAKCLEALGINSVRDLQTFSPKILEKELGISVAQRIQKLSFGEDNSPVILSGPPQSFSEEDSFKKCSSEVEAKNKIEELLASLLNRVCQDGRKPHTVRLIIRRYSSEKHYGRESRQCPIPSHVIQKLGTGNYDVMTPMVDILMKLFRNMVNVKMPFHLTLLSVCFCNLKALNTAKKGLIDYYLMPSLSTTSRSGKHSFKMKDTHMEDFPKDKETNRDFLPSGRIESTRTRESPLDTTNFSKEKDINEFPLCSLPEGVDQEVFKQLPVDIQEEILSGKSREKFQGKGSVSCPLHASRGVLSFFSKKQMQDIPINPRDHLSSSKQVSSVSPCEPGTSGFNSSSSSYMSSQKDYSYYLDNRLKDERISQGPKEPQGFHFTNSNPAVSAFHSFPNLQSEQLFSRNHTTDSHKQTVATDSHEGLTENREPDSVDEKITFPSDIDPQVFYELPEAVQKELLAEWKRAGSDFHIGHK

Target: DNA polymerase iota (Homo sapiens) (UniProt Q9UNA4)
Assay: qHTS for Inhibitors of Polymerase Iota
Conditions: Pol iota fluorescent replication assay, 10 min; series mostly up to 115 µM; activity, negative = inhibition: at the top concentration
Procedure, shortened: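 Pol iota at 10 nM preincubated 15 min with compounds at room temperature; reaction started with fluorescent substrate, 50 nM final. Fluorescence read kinetically at 0 and 10 min; buffer-only wells as negative control.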
Potency is the fitted concentration of half-maximal effect.

Potency, inconclusive:
C#Cc1ccc(CN2CCN(CCc3ccccc3)C(CCO)C2)cc1 (stereo not given) 79.4 µM [inhibitor, single point]
Cc1ccc(C2(c3ccccc3)NC(=O)N(CC(=O)NCc3ccco3)C2=O)cc1C (stereo not given) 7.08 µM [inhibitor, single point]
O=c1cc2nc(-c3ccccc3F)nc(SCc3ccc(Br)cc3)n2[nH]1 89.1 µM [inhibitor, single point]
CCOC(=O)c1c(C)[nH]c(C)c1S(=O)(=O)N1CCCC(C(=O)Nc2ccc(OC)c(OC)c2)C1 (stereo not given) 89.1 µM [inhibitor, single point]
Cn1c(N2CCCCC2)cc(=O)n(C)c1=O 39.8 µM [inhibitor, single point]
Cc1ccc(NC(=O)NC(=O)CN2C(=O)NC3(CCCCCCC3)C2=O)c(C)c1 63.1 µM [inhibitor, partial curve, poor fit]
COc1ccc(C(=O)CSc2nnc(-c3ccco3)c(-c3ccco3)n2)cc1 15.8 µM [inhibitor, full curve, poor fit]
O=C(O)COc1ccc2c(c1)CCCC2 79.4 µM [inhibitor, single point]
CSc1nnc(N2C(=O)C(O)=C(C(=O)c3ccco3)C2c2ccc(F)cc2)s1 (stereo not given) 0.708 µM [inhibitor, full curve, poor fit]
O=C(COC(=O)c1ccc([N+](=O)[O-])s1)Nc1ccc(Cl)cn1 10 µM [inhibitor, partial curve, poor fit]
Brc1ccc(-c2nc(N3CCN(c4ccccc4)CC3)c3ccccc3n2)cc1 89.1 µM [inhibitor, partial curve, poor fit]
Nc1cc(=O)[nH]c(SCC(=O)N2N=C(c3ccc(Cl)cc3)CC2c2ccco2)n1 (stereo not given) 31.6 µM [inhibitor, full curve]
CC(=O)NCCc1c[nH]c2ccc(O)cc12 25.1 µM [inhibitor, partial curve, poor fit]
CCCC(=O)Nc1ccc(NC(=S)NC(=O)c2cccs2)cc1 89.1 µM [inhibitor, single point]
CCN1C(=O)CC(c2ccccc2)N(C2CCCC2)c2nc(Nc3ccc(C(=O)NC4CCN(C)CC4)cc3OC)ncc21 (stereo not given) 28.2 µM [inhibitor, partial curve, poor fit]
COc1ccc(OC(C)C(=O)N2CCN(c3ccccn3)CC2)cc1 (stereo not given) 31.6 µM [inhibitor, single point]
Cc1cc(C(=O)C(=O)O)c(C)n1-c1ccc(Cl)cc1 56.2 µM [inhibitor, partial curve, poor fit]
Cc1ccc(S(=O)(=O)NCC(=O)OCC(=O)c2ccc(Cl)s2)cc1 100 µM [inhibitor, partial curve, poor fit]
N#Cc1cc(C(=O)c2cc(F)ccc2O)cn(-c2nccs2)c1=O 14.1 µM [inhibitor, partial curve, poor fit]
CC(=O)Nc1ccc(C(=O)Nc2ccc3c(c2)OCCO3)cc1 70.8 µM [inhibitor, single point]
Cc1ccc(S(=O)(=O)c2nc(-c3ccco3)oc2SCC(=O)c2ccc(Cl)cc2)cc1 70.8 µM [inhibitor, partial curve]
CCn1c(=O)c2cc(C(=O)NCCc3ccc(OC)c(OC)c3)sc2c2ccccc21 89.1 µM [inhibitor, single point]
O=C(O)CN1C(=O)/C(=C\c2cccc(OCc3ccc(Cl)cc3Cl)c2)SC1=S 17.8 µM [inhibitor, partial curve, poor fit]
Cc1cccc(Oc2ccc(S(=O)(=O)N3CCCCC3)cc2NC(=O)C2=COCCO2)c1 0.794 µM [inhibitor, full curve, poor fit]
CC(=C\c1ccco1)/C=C(\C#N)C(=O)NCCc1c[nH]c2ccccc12 56.2 µM [inhibitor, partial curve, poor fit]
O=C(COC(=O)CCCN1C(=O)c2ccccc2C1=O)Nc1ncc(Cl)cc1Cl 15.8 µM [inhibitor, full curve, poor fit]
O=C(NC(Cc1ccccc1)C(=O)Oc1ccc2c(C(F)(F)F)cc(=O)oc2c1)OCc1ccccc1 (stereo not given) 89.1 µM [inhibitor, single point]
Cc1cc(/C=C2\SC(=Nc3ccccc3)NC2=O)c(C)n1-c1ccc(S(N)(=O)=O)cc1 15.8 µM [inhibitor, full curve, poor fit]
C/C(N)=C(/C#N)C(=O)COC(=O)c1cccc2ccccc12 12.6 µM [inhibitor, full curve]
Cc1cc2c(=O)oc(-c3ccccc3Br)nc2s1 39.8 µM [inhibitor, partial curve, poor fit]

Quoted at random: 3 entries already listed
Potency, inconclusive:
O=C(NC(Cc1ccccc1)C(=O)Oc1ccc2c(C(F)(F)F)cc(=O)oc2c1)OCc1ccccc1 (stereo not given) 89.1 µM [inhibitor, single point]
Cn1c(N2CCCCC2)cc(=O)n(C)c1=O 39.8 µM [inhibitor, single point]
O=C(COC(=O)c1ccc([N+](=O)[O-])s1)Nc1ccc(Cl)cn1 10 µM [inhibitor, partial curve, poor fit]

Following part.

Potency, active:
Cn1cnc([N+](=O)[O-])c1SCC(=O)NN 79.4 µM
COc1cc(S(=O)(=O)O)c(C)cc1N=Nc1c(O)ccc2cc(S(=O)(=O)O)ccc12 44.7 µM

activity, negative = inhibition, inactive:
O=C(c1cccc2ccccc12)C1CCCN(C(=O)CCc2cnccn2)C1 (stereo not given) 17.5%
CCN(CC)C(=O)COC(=O)c1cc(-c2ccc(OC)cc2)nc2ccccc12 -4.32%
CC(C)CCn1c(=O)c2ccccc2n2c(CCC(=O)NCC3CCCO3)nnc12 (stereo not given) 23.3%
Cc1cccc2cc(/C=N/Nc3ccc(C(=O)O)cc3)c(Cl)nc12 5.3%
CC1CCN(c2nn3c(=O)c(C(=O)NCCc4ccc(Cl)cc4)cnc3s2)CC1 -7.72%
O=c1[nH]c2ccc(NS(=O)(=O)c3ccc(F)cc3)cc2s1 -0.499%
CC(C)(C)c1ccc(NC(=O)C2=CC=CN3CCS(=O)(=O)N=C23)cc1 6.71%
CC(=O)NCCCc1ccc(C(=O)COC(=O)CNC(=O)c2ccc3ccccc3c2)cc1 18.6%
